mCherry and percent effect data for five compounds are collected here from the supplement of paper PMC8256030.

For assay [1], the system named is SARS-CoV-2 -1 PRF reporter mCherry-FSE-GFP(-1). Briefly: mCherry (red) intensity as percent of control; higher = higher upstream reporter expression. Conditions: 10 µM; 24 h; HEK293T.
Assay [2] shares this test system. In words: percent effect, decrease of GFP/mCherry ratio (-1 PRF reporter) relative to controls; higher = stronger frameshift inhibition. Particulars: 10 µM; 24 h; HEK293T.

Molecules are shown by their SMILES. This is one part of the list. Single values are uncertain here, since repeats match poorly.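 HEK293T cells were given each compound shortly before transfection with a reporter in which red mCherry is followed by the SARS-CoV-2 frameshift element and then GFP in the −1 frame, so GFP appears only after frameshifting.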

On to `CCC(C)C(C)C1Nc2cc(Cl)c(S(N)(=O)=O)cc2S(=O)(=O)N1` (stereo not given) [mebutizide], for which, in assay [1], the mCherry worked out at 75.6%. Besides, in assay [2], the percent effect was found to be 3.88%.
In the same order, the values of `CCOc1ccc2ccccc2c1C(=O)N[C@@H]1C(=O)N2[C@@H]1SC(C)(C)[C@@H]2C(=O)O` [nafcillin] are 94% and 1.73%.
The matching figures for `O=C(COc1ccc(Cl)cc1)N1CCN(Cc2ccc3c(c2)OCO3)CC1` [fipexide]: 107% and -0.407%.
The matching figures for `CCOc1ccc(/N=C(\C)Nc2ccc(OCC)cc2)cc1` [phenacaine]: 114% and -2.29%.
In assay [1], `O=C(O)c1c(O)c(-c2ccccc2)nc2ccccc12` [oxycinchophen] came in with a mCherry of 103%. Moreover, the percent effect in assay [2] is -0.246%.
